Measured values: patent US20240317866A1, “Use of Anti-EGFR/Anti-Met Antibody to Treat Gastric or Esophageal Cancer” (Janssen Biotech, Inc., priority 2022, published 2024)

Tested on: esophageal cancer (EC) expressing EGFR and/or cMet
Type: in vivo
Text: Approximately 30 participants with any expression level of EGFR, cMet, or both proteins are enrolled in each of the Phase 2a cohort. […] Additional enrollment in Phase 2a cohorts may be allowed to achieve this minimal enrollment.
This is an open-label, multicenter, multi-arm Phase 2 interventional study in participants with previously treated advanced or unresectable GC or EC who are 20 years or older (or the legal age of consent in the jurisdiction in which the study is taking place). Japanese participants with gastric/GEJ or EC who express varying degrees of EGFR, cMet, or both as determined by IHC locally or centrally are enrolled in the GC cohort or EC cohort.
The baseline disease assessments are performed as close as possible to the start of treatment, but no more than 28 days prior to the first dose. Subsequent assessments are performed at 6 weeks (+1 week) after initiation of study treatment administration, then every 6 weeks (±1 week) for the first 12 months and then every 12 weeks (±1 week) until objective radiographic disease progression. Timing for each disease assessment is relative to the first dose of study treatment administration, regardless of dose modifications, and continues until disease progression. Any other site at which new disease is suspected is also imaged.
The primary efficacy measure is ORR. Objective response rate is defined as the proportion of participants who achieve either CR or PR, determined by investigator assessment using RECIST Version 1.1. Confirmation of investigator-assessed ORR may be performed through IRC in the Phase 2b.
Disease Control Rate: Disease control rate is defined as the percentage of participants achieving complete or partial response or stable disease for at least 6 weeks as defined by RECIST Version1.1. The DCR and its 95% CI with Clopper-Pearson method are also calculated.
Next, response to treatment was evaluated. The “All Treated” patient population were patients who received at least 1 dose of study treatment.

## amivantamab
All treated population, IHC 1+, N=1, beta distribution
  Posterior probability (ORR >22.5%): 0.601
All treated population, IHC 2+, N=10, beta distribution
  Posterior probability (ORR >22.5%): 0.254
All treated population, IHC 3+, N=17, beta distribution
  Posterior probability (ORR >22.5%): 0.195
All treated population, IHC NA, N=2, beta distribution
  Posterior probability (ORR >22.5%): 0.465
All treated population, Total, N=30, beta distribution
  Posterior probability (ORR >22.5%): 0.059
Response evaluable population, IHC 1+, N=1, beta distribution
  Posterior probability (ORR >22.5%): 0.601
Response evaluable population, IHC 2+, N=10, beta distribution
  Posterior probability (ORR >22.5%): 0.254
Response evaluable population, IHC 3+, N=17, beta distribution
  Posterior probability (ORR >22.5%): 0.195
Response evaluable population, Total, N=28, beta distribution
  Posterior probability (ORR >22.5%): 0.082

Where two headings read alike, the source gives them in different places.
